Results are given in words; binding and its absence hold for the method and conditions named. For part of these data: Binding calls can cover weak binding; strength is not graded here. Sequences can lack the tags named with a protein. For part of these data: Binding seen in cells or lysates may run through a third protein. One block for each molecule: values may come before it.
What was measured:
Flag-KPC2 = target: T1, Flag-KPC2 (UniProt Q9BSL1); experiment: co-IP; Flag immunoprecipitation (antibody-conjugated beads, overnight, IP buffer) from co-transfected CD95 k.o. HEK/293T cells, KPC2 co-transfected; immunoblotting
T1 sequence: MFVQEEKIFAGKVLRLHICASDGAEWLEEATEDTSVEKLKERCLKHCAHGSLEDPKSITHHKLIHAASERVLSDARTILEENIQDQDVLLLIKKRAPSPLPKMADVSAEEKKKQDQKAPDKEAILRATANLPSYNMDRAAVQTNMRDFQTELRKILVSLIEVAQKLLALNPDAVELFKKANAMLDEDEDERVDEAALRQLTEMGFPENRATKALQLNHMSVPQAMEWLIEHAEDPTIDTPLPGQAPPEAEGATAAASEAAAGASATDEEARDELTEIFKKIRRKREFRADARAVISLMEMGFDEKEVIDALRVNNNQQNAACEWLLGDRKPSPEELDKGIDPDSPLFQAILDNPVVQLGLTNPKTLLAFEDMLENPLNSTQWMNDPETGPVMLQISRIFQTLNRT

[1] = target: T2, KPC2 fused to the N-term part of Renilla luciferase (F1) (UniProt Q9BSL1); experiment: split reporter; competitive protein-fragment complementation assay: CD95/KPC2 luciferase signal with overexpression of CD95 regions in HEK/293T cells
T2 sequence: T1 sequence

KPC2-hRluc-F[2] = target: T3, KPC2-hRluc-F[2] (UniProt Q9BSL1); experiment: split reporter; protein-fragment complementation assay: Renilla luciferase fragments F1 and F2 fused to the two proteins, co-transfected HEK/293T cells, coelenterazine-h 5 μM
T3 sequence: T1 sequence

[3] = target: HA-CD95(1-303)-GFP (human); experiment: co-IP; HA immunoprecipitation of HA-tagged CD95-GFP constructs from CD95 k.o. HEK/293T cells co-transfected with Flag-KPC2, Flag-p65 or Flag-p65 fragments, 24 h after transfection; immunoblotting
[4] = target: HA-CD95(1-319)-GFP (human); experiment: as above
[5] = target: GST-V5-CD95 (175-210) (human); experiment: pull-down; 100 ng of purified GST-V5-CD95 domains mixed with lysate (1 mg) of HEK/293T cells transfected with Flag-KPC2 or Flag-p65, 2 h at 4°C, then anti-V5 agarose beads overnight; Hepes buffer, 150 mM NaCl; immunoblotting; only the target purified
[6] = target: GST-V5-CD95 (211-303) (human); experiment: as above
[7] = target: GST-V5-CD95 (303-319) (human); experiment: as above
[8] = target: GST-V5-CD95 (303-319) (human); experiment: pull-down; cell-free: 100 ng of each purified GST protein mixed 1 h at room temperature in IP buffer (25 mM Hepes, 150 mM NaCl, 2 mM EDTA, 1% Triton X100), anti-V5-agarose beads 2 h at 4°C; immunoblotting; both purified
[9] = target: CD95 fused to the C-term region of Renilla luciferase (F2) (human); experiment: split reporter; competitive protein-fragment complementation assay: CD95/KPC2 luciferase signal with overexpression of CD95 regions in HEK/293T cells
[10] = target: CD95 fused to the C-term region of Renilla luciferase (F2) (human); experiment: split reporter; protein-fragment complementation assay: Renilla luciferase fragments F1 and F2 fused to the two proteins, co-transfected HEK/293T cells, coelenterazine-h 5 μM

Molecule: CD95(175-210)-hRluc-F[1] (human) (domain or fragment)
- binding (KPC2-hRluc-F[2]): no binding

Molecule: CD95(303-319)-hRluc-F[1] (human) (domain or fragment)
- binding (KPC2-hRluc-F[2]): binds

Molecule: CD95(211-303)-hRluc-F[1] (human) (domain or fragment)
- binding (KPC2-hRluc-F[2]): no binding

Molecule: CD95(175–319)-F1 (human) (domain or fragment)
- binding (KPC2-hRluc-F[2]): binds

B3: KPC2 fused to the N-term part of Renilla luciferase (F1) (protein, UniProt Q9BSL1 1-405)
chain: T1 sequence
- binding [9]: binds
- binding [10]: binds

Next, values leading:

- binding (Flag-KPC2): binds
Molecule: HA-CD95(1-319)-GFP (human) (receptor)

- binding [1]: binds
Molecule: overexpressed C-terminal region (303–319 residues) of CD95 (competitor in the PCA) (human) (domain or fragment)

- binding [1]: binds
Molecule: overexpressed whole intracellular region of CD95 (competitor in the PCA) (human) (domain or fragment)

- binding [3]: no binding
- binding [4]: binds
- binding [5]: no binding
- binding [6]: no binding
- binding [7]: binds
B1: Flag-KPC2 (protein, UniProt Q9BSL1 1-405)
chain: T1 sequence

- binding [8]: binds
B2: GST-KPC2 (protein, UniProt Q9BSL1 1-405)
chain: T1 sequence

— paper PMC8666665
